The shares of active, inactive and inconclusive entries below differ from those in the screen. A call without a number means that no potency is given here. Potencies of inconclusive entries are doubtful fits and often do not repeat. Active and inactive are the calls of the source.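 How the source made its calls: active means potency, the concentration giving half inhibition in the gel assay, of 75 µM or lower; inconclusive means potency above 75 µM yet under 100 µM; inactive means potency of 100 µM or weaker, or none.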
Target: Ubiquitin carboxyl-terminal hydrolase 1 (Homo sapiens) + WD repeat-containing protein 48 (Homo sapiens) (UniProt O94782+Q8TAF3)
Test: Inhibitors of USP1/UAF1: Hit Validation in USP1 Diubiquiting Gel Assay
Settings: USP1/UAF1 K63 diubiquitin cleavage, SDS-PAGE gel
Text: Deubiquitinating enzymes (DUBs) are a class of enzymes that can cleave isopeptide bond formed between the C-terminal carboxylate of ubiquitin and a lysine side-chain amino group on the target protein. Among them, ubiquitin specific proteases (USPs) constitute the largest DUB family. Human USPs are emerging as promising targets for pharmacological intervention because of their connection to a number of human diseases, including prostate, colon and breast cancer (1, 2), pediatric acute lymphoblastic leukemia (3), and familial cylindromatosis (4). The advantage of inhibiting USPs lies in the potential specificity of therapeutic intervention that can lead to better efficacy and reduce nonspecific side effects. […] This miniaturized assay has a fluorescent read-out and is used to screen the NIH Molecular Libraries Small Molecule Repository (MLSMR) in order to identify a small molecule that inhibits USP1. […]
The inhibition assay contains 100 nM for USP1/UAF1, 2 microM K63 linked diubiquitin, and inhibitors at varied concentrations (0.08 microM - 114 microM). […] The intensity of the individual diubiquitin and monoubiquitin band was quantified using Quantity One 4.3.1 (Biorad, Hercules, CA). The percentage of the conversion was determined and used to calculate the reaction rate. […]

By UniProt entry, the sequences of proteins in these tests, tags left out. Where a name states a change or a piece, a line headed by the entry shows the natural chain unless it says otherwise.
UniProt O94782: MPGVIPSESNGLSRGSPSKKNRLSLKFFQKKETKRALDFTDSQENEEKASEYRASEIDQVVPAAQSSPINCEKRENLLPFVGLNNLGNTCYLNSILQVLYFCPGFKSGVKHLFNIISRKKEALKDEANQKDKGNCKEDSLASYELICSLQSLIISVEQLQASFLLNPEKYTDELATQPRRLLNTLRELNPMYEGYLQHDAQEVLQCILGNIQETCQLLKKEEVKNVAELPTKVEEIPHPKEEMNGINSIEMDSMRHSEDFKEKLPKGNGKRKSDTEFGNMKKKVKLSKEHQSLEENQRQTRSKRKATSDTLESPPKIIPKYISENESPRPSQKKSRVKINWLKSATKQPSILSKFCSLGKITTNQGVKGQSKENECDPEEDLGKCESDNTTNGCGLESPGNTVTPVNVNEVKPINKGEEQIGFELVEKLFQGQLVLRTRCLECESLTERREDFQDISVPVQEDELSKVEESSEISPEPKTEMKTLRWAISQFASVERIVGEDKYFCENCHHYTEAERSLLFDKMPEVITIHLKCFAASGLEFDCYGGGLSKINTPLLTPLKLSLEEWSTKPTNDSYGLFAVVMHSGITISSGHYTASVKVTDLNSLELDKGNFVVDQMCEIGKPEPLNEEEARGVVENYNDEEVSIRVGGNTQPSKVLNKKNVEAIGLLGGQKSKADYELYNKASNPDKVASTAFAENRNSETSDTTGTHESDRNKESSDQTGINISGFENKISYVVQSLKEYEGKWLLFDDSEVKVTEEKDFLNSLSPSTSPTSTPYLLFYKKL
UniProt Q8TAF3: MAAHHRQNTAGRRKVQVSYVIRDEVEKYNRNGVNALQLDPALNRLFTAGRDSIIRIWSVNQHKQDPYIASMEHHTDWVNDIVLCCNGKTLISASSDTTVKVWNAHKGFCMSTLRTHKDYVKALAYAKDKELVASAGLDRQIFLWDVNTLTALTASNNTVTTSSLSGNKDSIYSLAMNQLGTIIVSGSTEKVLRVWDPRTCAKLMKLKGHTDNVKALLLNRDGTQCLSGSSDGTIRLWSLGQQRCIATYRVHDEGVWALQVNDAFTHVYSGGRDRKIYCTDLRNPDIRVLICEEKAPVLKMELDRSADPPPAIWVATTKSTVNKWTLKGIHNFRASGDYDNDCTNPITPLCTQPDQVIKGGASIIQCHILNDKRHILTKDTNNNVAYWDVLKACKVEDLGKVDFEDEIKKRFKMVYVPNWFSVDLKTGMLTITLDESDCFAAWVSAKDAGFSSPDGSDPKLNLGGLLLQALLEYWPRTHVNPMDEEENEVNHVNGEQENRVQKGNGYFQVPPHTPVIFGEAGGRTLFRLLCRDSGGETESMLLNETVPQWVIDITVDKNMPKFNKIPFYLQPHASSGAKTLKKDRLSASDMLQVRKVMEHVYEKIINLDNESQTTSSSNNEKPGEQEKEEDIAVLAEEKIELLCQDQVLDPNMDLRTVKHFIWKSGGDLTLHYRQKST

| SMILES | outcome | Potency |
| --- | --- | --- |
| Fc1ccc(Nc2nc(-c3cccnc3)nc3ccccc23)cc1 | inactive |  |
| CN(C)c1nc(-c2ccoc2)nc2ccccc12 |  | inconclusive: 80.2 µM |

Source: PubChem BioAssay AID624346 (National Center for Advancing Translational Sciences (NCATS), 2012)
